Among the data in publication PMC5811549 are binding values, retold here.

Protein sequences, listed by entry. Tags and fused reporters are not part of them. Lines headed by an entry give the natural chain unless they say otherwise; changes in a name come on top. Chains listed by the source or under a name are the forms on record and can include a tag or linker. Residues count along the entry.
UniProt P02454: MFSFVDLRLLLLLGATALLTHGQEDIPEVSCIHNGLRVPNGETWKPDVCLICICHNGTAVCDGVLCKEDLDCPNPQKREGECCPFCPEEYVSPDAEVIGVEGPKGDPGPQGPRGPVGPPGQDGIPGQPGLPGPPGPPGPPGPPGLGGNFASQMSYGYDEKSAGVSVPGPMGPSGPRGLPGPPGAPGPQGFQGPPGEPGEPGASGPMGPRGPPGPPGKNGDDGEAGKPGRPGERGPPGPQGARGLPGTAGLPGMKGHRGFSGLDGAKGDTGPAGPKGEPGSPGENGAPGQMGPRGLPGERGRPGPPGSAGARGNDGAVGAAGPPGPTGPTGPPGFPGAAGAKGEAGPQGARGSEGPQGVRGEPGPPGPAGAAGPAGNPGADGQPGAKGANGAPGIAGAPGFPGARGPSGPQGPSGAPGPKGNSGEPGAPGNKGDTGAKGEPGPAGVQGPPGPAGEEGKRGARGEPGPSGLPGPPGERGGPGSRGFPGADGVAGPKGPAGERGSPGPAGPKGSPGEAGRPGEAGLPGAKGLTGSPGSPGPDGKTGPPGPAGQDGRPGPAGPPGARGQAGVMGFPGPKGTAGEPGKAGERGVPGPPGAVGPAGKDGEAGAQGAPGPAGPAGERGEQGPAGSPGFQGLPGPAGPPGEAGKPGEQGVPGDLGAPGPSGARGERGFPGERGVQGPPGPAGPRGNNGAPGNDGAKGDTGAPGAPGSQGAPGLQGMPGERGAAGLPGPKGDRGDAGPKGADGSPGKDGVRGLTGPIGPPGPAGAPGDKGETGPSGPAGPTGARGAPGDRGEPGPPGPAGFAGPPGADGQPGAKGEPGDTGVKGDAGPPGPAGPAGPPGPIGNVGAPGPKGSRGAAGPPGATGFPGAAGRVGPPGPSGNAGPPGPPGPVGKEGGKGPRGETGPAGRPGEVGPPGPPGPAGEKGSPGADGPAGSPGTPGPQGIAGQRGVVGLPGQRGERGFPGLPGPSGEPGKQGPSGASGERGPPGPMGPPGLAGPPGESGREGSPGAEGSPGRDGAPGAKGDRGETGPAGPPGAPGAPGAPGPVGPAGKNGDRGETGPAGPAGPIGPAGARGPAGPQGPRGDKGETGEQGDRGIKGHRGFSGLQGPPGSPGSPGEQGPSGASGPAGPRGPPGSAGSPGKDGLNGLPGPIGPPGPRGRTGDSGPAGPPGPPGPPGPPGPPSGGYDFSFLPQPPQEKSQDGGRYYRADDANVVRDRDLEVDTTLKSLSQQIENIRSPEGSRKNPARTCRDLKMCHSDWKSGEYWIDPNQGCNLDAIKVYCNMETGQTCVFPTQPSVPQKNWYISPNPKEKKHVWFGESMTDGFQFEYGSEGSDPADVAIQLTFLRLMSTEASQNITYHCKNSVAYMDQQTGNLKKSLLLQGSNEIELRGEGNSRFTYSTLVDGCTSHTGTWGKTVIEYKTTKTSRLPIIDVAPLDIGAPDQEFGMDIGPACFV
UniProt P02466: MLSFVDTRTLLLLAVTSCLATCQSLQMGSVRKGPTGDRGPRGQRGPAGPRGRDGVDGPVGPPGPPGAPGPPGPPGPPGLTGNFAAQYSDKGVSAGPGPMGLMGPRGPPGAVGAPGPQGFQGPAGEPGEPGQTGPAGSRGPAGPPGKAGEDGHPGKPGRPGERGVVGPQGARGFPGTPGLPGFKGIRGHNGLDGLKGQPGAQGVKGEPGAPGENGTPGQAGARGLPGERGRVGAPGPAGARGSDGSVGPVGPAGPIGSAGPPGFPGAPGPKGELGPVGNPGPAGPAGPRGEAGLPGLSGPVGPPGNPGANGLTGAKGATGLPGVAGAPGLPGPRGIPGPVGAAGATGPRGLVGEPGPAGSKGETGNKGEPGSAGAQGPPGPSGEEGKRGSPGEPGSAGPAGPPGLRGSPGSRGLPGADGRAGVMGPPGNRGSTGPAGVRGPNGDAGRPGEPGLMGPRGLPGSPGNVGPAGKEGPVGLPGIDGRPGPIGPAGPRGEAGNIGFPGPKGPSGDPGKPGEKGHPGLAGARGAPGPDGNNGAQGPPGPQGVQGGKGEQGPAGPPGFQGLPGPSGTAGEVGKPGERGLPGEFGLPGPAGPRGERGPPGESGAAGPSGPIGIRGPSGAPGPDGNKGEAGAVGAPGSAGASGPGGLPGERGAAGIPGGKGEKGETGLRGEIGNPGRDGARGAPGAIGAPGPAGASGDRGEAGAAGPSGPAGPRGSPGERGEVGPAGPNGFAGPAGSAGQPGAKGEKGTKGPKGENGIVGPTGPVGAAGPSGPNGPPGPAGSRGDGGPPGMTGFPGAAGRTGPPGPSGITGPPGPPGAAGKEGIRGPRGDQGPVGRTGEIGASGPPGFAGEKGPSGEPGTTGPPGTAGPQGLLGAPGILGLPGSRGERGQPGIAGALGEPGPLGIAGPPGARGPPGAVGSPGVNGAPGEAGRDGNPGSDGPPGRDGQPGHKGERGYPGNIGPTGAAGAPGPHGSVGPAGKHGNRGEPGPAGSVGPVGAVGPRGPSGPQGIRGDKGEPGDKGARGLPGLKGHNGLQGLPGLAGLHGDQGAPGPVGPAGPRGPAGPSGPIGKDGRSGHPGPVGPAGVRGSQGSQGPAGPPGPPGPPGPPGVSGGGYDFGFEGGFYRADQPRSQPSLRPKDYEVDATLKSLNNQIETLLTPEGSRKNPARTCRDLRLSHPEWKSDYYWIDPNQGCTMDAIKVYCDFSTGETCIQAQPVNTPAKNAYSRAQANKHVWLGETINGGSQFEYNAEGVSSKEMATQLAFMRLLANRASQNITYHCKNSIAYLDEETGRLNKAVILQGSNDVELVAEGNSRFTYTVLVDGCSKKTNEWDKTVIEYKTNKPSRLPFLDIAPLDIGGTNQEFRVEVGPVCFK
GST-tagged integrin α2-I domain, wild type (P17301, residues 169-365): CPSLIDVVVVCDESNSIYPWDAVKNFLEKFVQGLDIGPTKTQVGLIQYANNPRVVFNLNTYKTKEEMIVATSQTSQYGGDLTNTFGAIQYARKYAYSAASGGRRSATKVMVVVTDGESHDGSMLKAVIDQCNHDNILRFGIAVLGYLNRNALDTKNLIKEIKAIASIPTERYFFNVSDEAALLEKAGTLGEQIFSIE
GST-tagged integrin α2-I domain E152A mutant (P17301, form named): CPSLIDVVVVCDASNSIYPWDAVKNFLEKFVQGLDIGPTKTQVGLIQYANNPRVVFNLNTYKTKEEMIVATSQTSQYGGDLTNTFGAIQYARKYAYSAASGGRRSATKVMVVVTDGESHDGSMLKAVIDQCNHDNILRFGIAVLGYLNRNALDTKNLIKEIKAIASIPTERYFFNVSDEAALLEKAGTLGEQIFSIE

The target in the experiment is rat tail collagen I (rat) (UniProt P02454+P02466). Put plainly: ELISA; solid-phase binding assay; collagen coated on a 96-well plate and blocked with BSA; GST-tagged I domain serially diluted in TBS, 0.05% Tween-20, 10 mg/ml BSA, 1 mM MgCl2; 1.5 h at RT; detected with anti-GST HRP conjugate; both purified. On the technique in general: In an ELISA, binding on a coated surface is turned into a signal by an enzyme label.

Results are given in words; binding and its absence hold for the method and conditions named. Some results given as binding are weak or reduced against the parent protein; the word gives no strength.

For the substance “GST-tagged integrin α2-I domain E152A mutant (from UniProt P17301 169-365) (domain or fragment)”, the binding entry was “binds”.
As to “GST-tagged integrin α2-I domain, wild type (from UniProt P17301 169-365) (domain or fragment)”, the binding entry is recorded as “binds”.
